The source of these data is publication PMC9570369.

The chains behind the UniProt entries cited, without tags or fusion partners. Residues count along the entry.
UniProt P0C6Y1, residues 674-2265: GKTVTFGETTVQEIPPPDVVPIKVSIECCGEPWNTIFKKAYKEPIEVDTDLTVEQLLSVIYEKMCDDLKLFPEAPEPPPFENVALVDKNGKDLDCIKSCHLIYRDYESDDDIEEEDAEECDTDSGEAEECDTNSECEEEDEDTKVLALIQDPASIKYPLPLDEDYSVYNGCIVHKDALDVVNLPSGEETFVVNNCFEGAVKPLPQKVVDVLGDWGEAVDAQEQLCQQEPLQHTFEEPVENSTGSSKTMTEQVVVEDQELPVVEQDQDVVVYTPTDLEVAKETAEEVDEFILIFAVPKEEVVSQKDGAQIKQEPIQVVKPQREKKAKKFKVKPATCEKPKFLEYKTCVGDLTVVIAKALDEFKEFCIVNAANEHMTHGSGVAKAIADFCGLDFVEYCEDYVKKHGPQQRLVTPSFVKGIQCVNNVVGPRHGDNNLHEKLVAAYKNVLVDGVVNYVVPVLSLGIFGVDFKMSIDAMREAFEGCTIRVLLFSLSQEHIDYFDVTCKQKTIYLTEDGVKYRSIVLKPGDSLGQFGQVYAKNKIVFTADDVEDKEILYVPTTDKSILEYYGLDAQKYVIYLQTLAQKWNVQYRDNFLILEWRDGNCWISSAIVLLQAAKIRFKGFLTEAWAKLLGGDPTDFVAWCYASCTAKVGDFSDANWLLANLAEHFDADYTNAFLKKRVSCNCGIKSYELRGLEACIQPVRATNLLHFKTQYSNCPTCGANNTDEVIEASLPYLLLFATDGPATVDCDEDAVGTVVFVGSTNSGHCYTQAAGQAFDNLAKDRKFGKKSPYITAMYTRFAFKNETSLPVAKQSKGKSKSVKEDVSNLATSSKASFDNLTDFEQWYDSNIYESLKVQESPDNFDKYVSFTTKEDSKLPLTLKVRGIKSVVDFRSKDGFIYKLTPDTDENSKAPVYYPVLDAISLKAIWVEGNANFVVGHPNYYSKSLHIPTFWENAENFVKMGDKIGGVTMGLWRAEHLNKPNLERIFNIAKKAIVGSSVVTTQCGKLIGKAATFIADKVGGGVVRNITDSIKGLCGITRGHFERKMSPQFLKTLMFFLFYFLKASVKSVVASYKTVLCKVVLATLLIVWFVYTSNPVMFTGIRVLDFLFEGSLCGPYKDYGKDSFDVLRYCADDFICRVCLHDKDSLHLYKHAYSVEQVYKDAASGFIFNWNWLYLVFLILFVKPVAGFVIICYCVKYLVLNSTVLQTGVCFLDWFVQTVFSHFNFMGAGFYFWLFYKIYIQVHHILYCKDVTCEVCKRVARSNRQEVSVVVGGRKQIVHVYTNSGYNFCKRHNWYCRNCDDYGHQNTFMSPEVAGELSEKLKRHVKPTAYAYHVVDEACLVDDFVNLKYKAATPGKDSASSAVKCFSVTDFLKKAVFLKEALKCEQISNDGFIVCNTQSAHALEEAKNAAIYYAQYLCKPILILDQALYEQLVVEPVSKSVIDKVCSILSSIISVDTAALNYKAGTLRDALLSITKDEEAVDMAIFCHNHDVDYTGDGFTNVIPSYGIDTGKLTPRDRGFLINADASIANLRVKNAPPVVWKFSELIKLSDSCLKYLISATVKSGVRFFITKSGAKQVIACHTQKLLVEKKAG

These are yes or no findings as the source states them, for the method shown. Binding seen in cells or lysates may run through a third protein. Some binding calls cover weakened binding; strength is not graded here.

The target in assay [1] is HA-tagged full-length SARS-CoV-2 nsp3 (SARS-CoV-2) (UniProt P0DTD1). Put plainly: co-IP.
The target in assay [2] is Flag-tagged full-length IBV nsp3 (avian coronavirus infectious bronchitis virus (IBV)) (UniProt P0C6Y1). Nature of the assay: co-IP.

B1: endogenous melanoma differentiation-associated gene 5 (MDA5) (protein, UniProt Q9BYX4 1-1025)
chain: MSNGYSTDENFRYLISCFRARVKMYIQVEPVLDYLTFLPAEVKEQIQRTVATSGNMQAVELLLSTLEKGVWHLGWTREFVEALRRTGSPLAARYMNPELTDLPSPSFENAHDEYLQLLNLLQPTLVDKLLVRDVLDKCMEEELLTIEDRNRIAAAENNGNESGVRELLKRIVQKENWFSAFLNVLRQTGNNELVQELTGSDCSESNAEIENLSQVDGPQVEEQLLSTTVQPNLEKEVWGMENNSSESSFADSSVVSESDTSLAEGSVSCLDESLGHNSNMGSDSGTMGSDSDEENVAARASPEPELQLRPYQMEVAQPALEGKNIIICLPTGSGKTRVAVYIAKDHLDKKKKASEPGKVIVLVNKVLLVEQLFRKEFQPFLKKWYRVIGLSGDTQLKISFPEVVKSCDIIISTAQILENSLLNLENGEDAGVQLSDFSLIIIDECHHTNKEAVYNNIMRHYLMQKLKNNRLKKENKPVIPLPQILGLTASPGVGGATKQAKAEEHILKLCANLDAFTIKTVKENLDQLKNQIQEPCKKFAIADATREDPFKEKLLEIMTRIQTYCQMSPMSDFGTQPYEQWAIQMEKKAAKEGNRKERVCAEHLRKYNEALQINDTIRMIDAYTHLETFYNEEKDKKFAVIEDDSDEGGDDEYCDGDEDEDDLKKPLKLDETDRFLMTLFFENNKMLKRLAENPEYENEKLTKLRNTIMEQYTRTEESARGIIFTKTRQSAYALSQWITENEKFAEVGVKAHHLIGAGHSSEFKPMTQNEQKEVISKFRTGKINLLIATTVAEEGLDIKECNIVIRYGLVTNEIAMVQARGRARADESTYVLVAHSGSGVIEHETVNDFREKMMYKAIHCVQNMKPEEYAHKILELQMQSIMEKKMKTKRNIAKHYKNNPSLITFLCKNCSVLACSGEDIHVIEKMHHVNMTPEFKELYIVRENKALQKKCADYQINGEIICKCGQAWGTMMVHKGLDLPCLKIRNFVVVFKNNSTKKQYKKWVELPITFPNLDYSECCLFSDED
As for B1, the binding entry in assay [1] and in assay [2] was “binds” in each case.
